# System: metabolic syndrome rats
# Assay: Efficacy on metabolic syndrome in rats fed high-fat and high-sugar feed
# Type: in vivo, SD rats
# Text: One hundred SPF-grade male SD rats with weight of 160-180 g were subjected to adaptive feeding for 1 week, and 80 rats were randomly selected and fed with a high-fat and high-sugar feed for 8 weeks to perform metabolic syndrome modeling. The formula of the high-fat and high-sugar feed (in percentage by mass, wt %) were: 66.5% of basal feed, 2.5% of cholesterol, 20% of sucrose, 10% of lard, and 1% of cholate. The remaining 20 rats were fed with a basal feed.
# After 8 weeks of feeding, 70 rats that were successfully modeled were selected according to the levels of body weight, body length, blood pressure, blood fat, fasting blood glucose, and the like, and randomly divided into 8 groups, with 10 rats in each group: model group, positive drug group (atorvastatin calcium, Pfizer Inc., 15 mg/kg), AKK bacteria AM06 live bacteria low dose group (10^6 CFU/rat), high dose group (10^10 CFU/rat), AM02 live bacteria group (10^10 CFU/rat), AM02 live bacteria (10^10 CFU/rat) in combination with atorvastatin calcium (15 mg/kg) group, and AKK bacteria AM06 and AM02 inactivated bacteria groups (10^10 cells/rat). Another 10 unmodeled rats were used as a normal control group.
# Administration was performed after the grouping (DO): For the normal control group and the model group, 1 mL of normal saline was administered by intragastric administration once daily; for each of the treatment groups, the corresponding dose of the medicament was administered by intragastric administration once daily for consecutively 8 weeks. During the grouping and administration, the normal control group was fed with a basal feed, and the model group and each treatment group were fed with a high-fat and high-sugar feed.
# After the last intragastric administration, the body length and the body weight of the rats were recorded. The Lee's index was calculated by the following formula: Lee's index=body weight (g)^1/3×1000×body length (cm)^−1; after the last intragastric administration, the rats were fasted but had free access to water for 12 h, the tail artery systolic blood pressure (SBP) was measured by a non-invasive blood pressure instrument, and the fasting blood glucose level (FBG) was detected by a glucometer; the rats were anesthetized with chloral hydrate, blood was collected from the abdominal aorta, the serum was separated, the serum insulin level (Fins) was measured by ELISA, and the insulin resistance index (HOMA-IR) was calculated as: HOMA-IR=FBG×Fins/22.5; serum triglyceride (TG), Total cholesterol (TC), low density lipoprotein (LDL-c), and high density lipoprotein (HDL-c) were measured by an automatic biochemical analyzer. All data were statistically analyzed using SPSS 25.0.p<0.05 was considered to have a statistical difference.
# [1] = intragastric once daily 8 weeks, atorvastatin calcium 15 mg/kg
smiles,measurement,setting,value
"CC(C)c1c(C(=O)Nc2ccccc2)c(-c2ccccc2)c(-c2ccc(F)cc2)n1CC[C@@H](O)C[C@@H](O)CC(=O)[O-].CC(C)c1c(C(=O)Nc2ccccc2)c(-c2ccccc2)c(-c2ccc(F)cc2)n1CC[C@@H](O)C[C@@H](O)CC(=O)[O-].[Ca+2] [Positive drug, atorvastatin calcium]",HDL-c level compared with the model group,,significantly increased
same,LDL-c level compared with the model group,,significantly decreased
same,Lee's index compared with the model group,,significant difference
same,TC level compared with the model group,,significantly decreased
same,TG level compared with the model group,,significantly decreased
same,FBG,"fasting blood glucose, 8 weeks, atorvastatin calcium 15 mg/kg",6.40 ± 1.08 mmol/L
same,HOMA-IR,"insulin resistance index = FBG×Fins/22.5, 8 weeks, atorvastatin calcium 15 mg/kg",3.02 ± 1.25
same,Body mass,[1],460.15 ± 74.62 g
same,Lee's index,[1],273.82 ± 78.48
same,HDL-c,"serum high density lipoprotein, 8 weeks, atorvastatin calcium 15 mg/kg",0.85 ± 0.25 mmol/L
same,Fins,"serum insulin, ELISA, 8 weeks, atorvastatin calcium 15 mg/kg",14.22 ± 3.10 mIU/L
same,LDL-c,"serum low density lipoprotein, 8 weeks, atorvastatin calcium 15 mg/kg",1.14 ± 0.31 mmol/L
same,TC,"serum total cholesterol, 8 weeks, atorvastatin calcium 15 mg/kg",1.44 ± 0.77 mmol/L
same,TG,"serum triglyceride, 8 weeks, atorvastatin calcium 15 mg/kg",0.73 ± 0.28 mmol/L
same,SBP,"tail artery systolic blood pressure, 8 weeks, atorvastatin calcium 15 mg/kg",123.42 ± 31.01 mmHg

# Source: patent US12453746B2, “Use of akkermansia muciniphila in preparation of pharmaceutical composition or health care product composition for improving metabolic syndrome” (GUANGZHOU ZHIYI BIOTECHNOLOGY CO., LTD., priority 2022, dated 2025)
